Measured values published in PMC6433232, “Targeting mitochondria in cancer therapy could provide a basis for the selective anti-cancer activity” (PLoS ONE, 2019).

Test system: primary acute myeloid leukemia (AML) cells obtained from patients
Test: Kinase inhibitor library screening with and without NSC130362, primary AML cells
Assay type: cell-based, Human
Settings: ratio of EC50 for inhibitor to EC50 for inhibitor/NSC130362 combination, NSC130362 10 μM

Row | SMILES | EC50 decrease, fold (Screen N 1) [fold] | EC50 decrease, fold (Screen N 2) [fold] | EC50 decrease, fold (Screen N 3) [fold]
1 | CC(C)n1nc(-c2cc3cc(O)ccc3[nH]2)c2c(N)ncnc21 [PP242] | 0.5 | 4.0 | 31.9
2 | C[C@@H]1CCN(C(=O)CC#N)C[C@@H]1N(C)c1ncnc2[nH]ccc12 [Tofacitinib (CP-690550)] | 1.1 | 1.0 | 941.1
